Experimental data as given in PubChem BioAssay AID485314 (National Center for Advancing Translational Sciences (NCATS), 2010).
The campaign covered roughly 340,000 compounds. About 4,500 (1.3%) were called active. The shares of active, inactive and inconclusive entries below differ from those in the screen. The call rests on the fitted dose curve; in most records, active means well fitted inhibition curve with a large enough effect; inconclusive means small, poorly fitted or top-dose-only effect, or another doubt; inactive means no such curve, though single readings can be large or run the other way. A potency beside an inconclusive call is a rough fit, not a confirmed value.

Molecular target: DNA polymerase beta (Homo sapiens) (UniProt P06746)
Assay: qHTS Assay for Inhibitors of DNA Polymerase Beta
Details: Pol beta primer extension/strand displacement, fluorescence kinetic; activity change, negative = inhibition: at 114 µM (top of the series)
Outline: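 Human Pol beta at 10 nM; strand-displacement substrate 50 nM final. Compound exposure 15 min at room temperature before start, reaction 10 min at room temperature.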
On the % scale 0 is the no-effect control and ±100 the full control effect; potency means the concentration at half of the fitted maximal effect.

| Compound | Potency | activity change, negative = inhibition |
| --- | --- | --- |
| O=C(/C=C/c1ccco1)OCC(=O)c1cccc([N+](=O)[O-])c1 | inconclusive: 39.8 µM [inhibitor, full curve] |  |
| CC(C)Oc1ccc(C(=O)NCC(c2ccc(N(C)C)cc2)N2CCc3ccccc32)cc1 (stereo not drawn) | inconclusive: 70.8 µM [inhibitor, single point] |  |
| CCCc1cc(=O)n2[nH]c(NCc3ccccc3Cl)nc2n1 | inconclusive: 0.126 µM [inhibitor, full curve, poor fit] |  |
| Cc1ccc(N2C(=O)c3cccc4c(N)ccc(c34)C2=O)c2cccnc12 |  | inconclusive: -79.8% [inhibitor] |
| COc1ccc(CNC(=O)CN2C(=O)CCn3nc(-c4cn(C)c5ccccc45)cc32)cc1 |  | inactive: -12.8% |
| COc1cccc(C2CC(c3ccccc3)=NN2S(=O)(=O)c2ccc(C)cc2)c1OC (stereo not drawn) | active: 50.1 µM |  |
| CCOc1ccccc1CNC(=O)Cn1nc(C)c2c(C)n(-c3ccc(C)cc3)nc2c1=O | inconclusive: 89.1 µM [inhibitor, single point] |  |
| Cc1ccc(C)c(SCC(=O)OC/C(O)=C(\C#N)c2nc3ccccc3[nH]2)c1 | inconclusive: 10 µM [inhibitor, full curve] |  |
| CCOC(=O)c1c(C)[nH]c(CCC(=O)NCc2cc(OC)c(OC)c(OC)c2)c1C |  | inactive: -2.74% |
| Cn1c(NC(=O)c2ccco2)c(-c2ccccc2)c(=O)c2ccccc21 | inconclusive: 2.24 µM [inhibitor, partial curve, poor fit] |  |
| O=C(O)C1CC=CCC1C(=O)Nc1ccccc1Cl (stereo not drawn) | inconclusive: 50.1 µM [inhibitor, partial curve, poor fit] |  |
| Clc1ccc(CSc2nnc(-c3cccnc3)n2Cc2ccco2)c(Cl)c1 | active: 50.1 µM |  |
| N#Cc1ccc(C(=O)CN2CCN(c3ccccc3)CC2)cc1 | inconclusive: 100 µM [inhibitor, single point] |  |
| O=C(c1ccc2c(c1)N(Cc1cccc(Cl)c1)C(=O)c1ccccc1S2=O)N1CCC(Cc2ccccc2)CC1 (stereo not drawn) |  | inactive: -7.27% |
| COC(=O)c1c(NC(C)=O)sc(C(=O)N2CCOCC2)c1C | inconclusive: 100 µM [inhibitor, single point] |  |
| Cc1ccc(OCC(=O)N/N=C\c2ccc(C)o2)c([N+](=O)[O-])c1 | inconclusive: 63.1 µM [inhibitor, single point] |  |
| O=C(CSc1nnnn1-c1cccc(F)c1)Nc1nc2ccccc2s1 | inconclusive: 0.891 µM [inhibitor, full curve, poor fit] |  |
| COc1ccccc1/C=C/C=C1\Oc2c(ccc(O)c2CN(C)C)C1=O |  | inconclusive: -32.2% [inhibitor] |
| Nc1ccc(C(=O)c2ccccc2C(=O)O)cc1Cl | inconclusive: 11.2 µM [inhibitor, partial curve, poor fit] |  |
| Cc1cnc(NC(=O)c2ccc3c(c2)C(=O)N(Cc2ccco2)C3=O)s1 | inconclusive: 0.447 µM [inhibitor, full curve, poor fit] |  |
| O=C1NC(=Nc2ccc(O)cc2)S/C1=C/c1ccco1 | inconclusive: 50.1 µM [inhibitor, partial curve] |  |
| COc1ccccc1CCC(=O)Nc1ccc2c(c1)CN(Cc1ccc(CO)o1)CC2 | inconclusive: 79.4 µM [inhibitor, single point] |  |
| c1coc(C2Nc3cccc4cccc(c34)N2)c1 | inconclusive: 8.91 µM [inhibitor, full curve] |  |

| Compound | Potency | activity change, negative = inhibition |
| --- | --- | --- |
| COc1cc(C(=O)N(Cc2ccccn2)CC2CCCO2)cc(OC)c1OC (stereo not drawn) | inconclusive: 100 µM [inhibitor, single point] |  |
| CC1=C(C(N)=O)C(c2cccs2)n2nc(-c3cccc(Cl)c3)nc2N1 (stereo not drawn) |  | inactive: 38.4% |
| O=C(CSc1nccn1Cc1ccc(F)cc1)NCc1ccc(F)cc1 |  | inactive: 1.87% |
| COc1ccccc1-c1nn2c(=O)cc(CN3CCN(C(=O)/C=C/c4ccccc4)CC3)nc2s1 | inconclusive: 44.7 µM [inhibitor, partial curve] |  |
| COc1ccc(N2CCN(S(=O)(=O)c3ccc(-c4cnc(C5CC5)o4)cc3)CC2)cc1 | inconclusive: 44.7 µM [inhibitor, partial curve, poor fit] | inconclusive: -44.9% [inhibitor] |
| CCOc1c(O)ccc(/C=C2\SC(=S)NC2=O)c1[N+](=O)[O-] | active: 20 µM |  |
| O=c1[nH]c(/C=C\c2cccs2)nc(O)c1[N+](=O)[O-] | inconclusive: 17.8 µM [inhibitor, full curve] |  |
| N#C/C(=C\c1ccc(O)c([N+](=O)[O-])c1)c1nc2ccccc2s1 | active: 50.1 µM |  |
| Cc1nnsc1C(=O)Nc1ccc(Cl)cc1Cl | inconclusive: 39.8 µM [inhibitor, partial curve, poor fit] |  |
| Nc1ccc(N2CCCCC2)c(S(=O)(=O)Nc2ccc(Cl)cc2)c1 | inconclusive: 10 µM [inhibitor, partial curve] |  |
| CC1=C(C#N)c2nc(N)c(C#N)c(C)c2/C1=C\c1ccc(C)cc1 |  | inactive: 5.4% |
| Cc1cc(NC(=O)COC(=O)C2CCCN2C(=O)c2cccs2)no1 (stereo not drawn) | inconclusive: 89.1 µM [inhibitor, single point] |  |
| CC(=O)Nc1ccc(Oc2nc(C)cc(C)n2)cc1 | inconclusive: 89.1 µM [inhibitor, single point] |  |
| COc1ccc(CNC(=O)C2CCCN(S(=O)(=O)c3c(C)n[nH]c3C)C2)cc1 (stereo not drawn) | inconclusive: 3.16 µM [inhibitor, partial curve, poor fit] |  |
| COC(C(=O)NNS(=O)(=O)c1ccccc1[N+](=O)[O-])c1ccccc1 (stereo not drawn) |  | inactive: -26.5% |
| COC(=O)Nc1ccc(S(=O)(=O)Nc2ccc(O)cc2)cc1 | inconclusive: 79.4 µM [inhibitor, single point] |  |
| COc1ccc(S(=O)(=O)c2nnn(-c3ccc(C(C)C)cc3)c2C)cc1 | inconclusive: 11.2 µM [inhibitor, partial curve] |  |
| CCOCCCNC(=O)c1cc2c(=O)n3cccc(C)c3nc2n1C | inconclusive: 89.1 µM [inhibitor, single point] |  |
| OCCC1CN(C/C=C/c2ccco2)CCN1Cc1ccccc1 (stereo not drawn) | inconclusive: 63.1 µM [inhibitor, partial curve, poor fit] |  |
| O=[N+]([O-])c1ccc(/C([O-])=C(/C(=S)NCc2ccco2)[n+]2ccccc2)cc1 | active: 20 µM |  |
| Cc1cc(C)c(NS(=O)(=O)c2ccc(-c3coc(C)n3)cc2)c(C)c1 | inconclusive: 44.7 µM [inhibitor, partial curve, poor fit] |  |
| CC(C)(C)NC(=O)N1CCCN(c2ccc(C(F)(F)F)cn2)CC1 | inconclusive: 0.141 µM [inhibitor, full curve, poor fit] |  |
| Oc1ccc(-c2nc3ccc4ccccc4c3c3c2CCC3)cc1O | inconclusive: 1.78 µM [inhibitor, full curve] |  |

| Compound | Potency | activity change, negative = inhibition |
| --- | --- | --- |
| COc1ccc2c(c1)N(C)/C(=C/c1cccc[n+]1C)S2 | active: 39.8 µM |  |
| Cc1ccc(NC(=O)C2CCN(S(=O)(=O)c3ccc4c(c3)C(C)(C)C(=O)N4C)CC2)c(C)c1 |  | inactive: 33.3% |
| COc1ccc(CCNC(=O)Cc2c(C)c3cc4c(C)coc4cc3oc2=O)cc1OC | inconclusive: 2.82 µM [inhibitor, single point] |  |
| O=c1[nH]n2c(=O)c3c([nH]c2c1N=Nc1cccc(Cl)c1)CCCC3 | inconclusive: 12.6 µM [inhibitor, partial curve, poor fit] |  |
| COc1cccc(CNC(=O)c2nnn(CC(=O)Nc3cc(C)ccc3C)c2N)c1 | inconclusive: 0.178 µM [inhibitor, full curve, poor fit] |  |
| CCOc1ccc(C2C(=O)N(C3CCCCC3)CC(=O)N2CCc2ccccc2)cc1OC (stereo not drawn) |  | inactive: -5.54% |
| Cc1ccc(NC(=S)NC(=O)/C=C/c2ccco2)c(O)c1 | active: 17.8 µM |  |
| Cc1cc(C(=O)C(=O)Nc2nncs2)c(C)n1-c1ccc(Cl)cc1 | inconclusive: 79.4 µM [inhibitor, partial curve, poor fit] |  |
| CC(=O)N1CCOc2ccc(S(=O)(=O)NCCc3ccc(S(N)(=O)=O)cc3)cc21 |  | inactive: -13.3% |
| COC(=O)c1ccc(C)c(NC(=O)CCc2ccc(OC)c(OC)c2)c1 |  | inactive: -5.85% |
| CCN1CCN(C(c2ccccc2Cl)c2c(O)cc(C)n(Cc3ccco3)c2=O)CC1 (stereo not drawn) |  | inactive: 8.65% |
| COc1ccc(/C=N/NC(=O)c2[nH]nc3c2CCc2ccccc2-3)cc1OC | active: 11.2 µM |  |
| CCOc1ccc(CNC(=O)CCS(=O)(=O)c2cc3c4c(c2)CCN4C(=O)CC3)cc1OC |  | inactive: 3.27% |
| O=C(CCc1ccc(S(=O)(=O)NC2CCCCC2)cc1)Nc1ccccc1 | inconclusive: 79.4 µM [inhibitor, single point] |  |
| CN(C)S(=O)(=O)N1CCN(c2ccc([N+](=O)[O-])c(N3CCCCC3)c2)CC1 | inconclusive: 89.1 µM [inhibitor, single point] |  |
| Cc1ccc(-c2cc(C(=O)Nc3ccccc3C)c3ccccc3n2)o1 | active: 10 µM |  |
| COc1ccc(NCc2nnc(SCC(=O)c3ccc(C)cc3)o2)cc1 | inconclusive: 2 µM [inhibitor, single point] |  |
| O=C(CN1CCN(c2ccccc2F)CC1)NC(=O)NCc1ccco1 | active: 31.6 µM |  |
| Cc1ccc(CNC(=O)CSc2nnc3c(n2)[nH]c2ccccc23)cc1 | inconclusive: 17.8 µM [inhibitor, single point] |  |
| COc1ccc2nc(NC(=O)c3cc(=O)c4cc(C)cc(C)c4o3)sc2c1 | inconclusive: 7.94 µM [inhibitor, full curve, poor fit] |  |
| CCCCn1nnc(NC(=O)COc2cc(C)ccc2C(C)C)n1 | inconclusive: 70.8 µM [inhibitor, single point] |  |

Reprinted at random: 3 entries already listed, in no set order.

| Compound | Potency | activity change, negative = inhibition |
| --- | --- | --- |
| Cc1cc(C)c(NS(=O)(=O)c2ccc(-c3coc(C)n3)cc2)c(C)c1 | inconclusive: 44.7 µM [inhibitor, partial curve, poor fit] |  |
| OCCC1CN(C/C=C/c2ccco2)CCN1Cc1ccccc1 (stereo not drawn) | inconclusive: 63.1 µM [inhibitor, partial curve, poor fit] |  |
| COc1ccccc1CCC(=O)Nc1ccc2c(c1)CN(Cc1ccc(CO)o1)CC2 | inconclusive: 79.4 µM [inhibitor, single point] |  |
